# Measured values reported in paper PMC7948815.
# The chains behind the UniProt entries cited, without tags or fusion partners. Where a name states a change or a piece, a line headed by the entry shows the natural chain unless it says otherwise. A line that says so, or that is headed by a name, gives the form on record, which may keep a tag or linker.
# human PCIF1 (phosphorylated RNA polymerase II CTD interacting factor 1), full-length (Q9H4Z3, form named): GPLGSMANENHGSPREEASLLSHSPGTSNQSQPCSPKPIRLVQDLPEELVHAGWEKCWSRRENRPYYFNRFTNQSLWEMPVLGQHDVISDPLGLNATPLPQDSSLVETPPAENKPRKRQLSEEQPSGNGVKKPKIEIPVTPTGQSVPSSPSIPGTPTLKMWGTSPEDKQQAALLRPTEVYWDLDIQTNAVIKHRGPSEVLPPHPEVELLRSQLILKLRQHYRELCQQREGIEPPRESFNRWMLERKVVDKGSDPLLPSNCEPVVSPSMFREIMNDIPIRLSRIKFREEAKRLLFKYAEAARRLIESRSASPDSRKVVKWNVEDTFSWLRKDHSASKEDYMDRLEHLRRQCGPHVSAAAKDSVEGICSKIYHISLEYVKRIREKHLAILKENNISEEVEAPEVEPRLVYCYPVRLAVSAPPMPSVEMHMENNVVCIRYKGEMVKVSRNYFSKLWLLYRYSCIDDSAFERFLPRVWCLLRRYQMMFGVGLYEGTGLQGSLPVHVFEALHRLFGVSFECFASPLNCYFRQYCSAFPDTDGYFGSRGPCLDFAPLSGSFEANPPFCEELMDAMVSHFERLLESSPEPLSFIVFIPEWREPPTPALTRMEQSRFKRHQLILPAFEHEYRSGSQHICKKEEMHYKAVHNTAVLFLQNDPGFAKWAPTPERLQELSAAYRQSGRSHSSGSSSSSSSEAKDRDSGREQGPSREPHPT
# Results are given in words; binding and its absence hold for the method and conditions named.
# Legend:
# [1] = biological target: human PCIF1 (phosphorylated RNA polymerase II CTD interacting factor 1), full-length (human) (UniProt Q9H4Z3); test: SEC; Superdex 200 in 20 mM Tris-HCl pH 8.0, 150 mM NaCl, 5% glycerol, 0.5 mM TCEP; 4 °C; apparent molecular weight; both purified
# [2] = biological target: human PCIF1 (phosphorylated RNA polymerase II CTD interacting factor 1), full-length (human) (UniProt Q9H4Z3); test: SEC-SAXS; same SEC fractions as for MALS; PCIF1 at 4 mg/ml in 20 mM Tris-HCl pH 7.5, 150 mM NaCl, 0.1% β-mercaptoethanol; 20 °C; ALS Beamline 12.3.1; both purified
# [3] = biological target: human PCIF1 (phosphorylated RNA polymerase II CTD interacting factor 1), full-length (human) (UniProt Q9H4Z3); test: SEC-MALS; Shodex KW803 column; PCIF1 at 4 mg/ml in 20 mM Tris-HCl pH 7.5, 150 mM NaCl, 0.1% β-mercaptoethanol; 18-angle DAWN HELEOS II detector; both purified
substance,measurement,setting,value
"human PCIF1 (phosphorylated RNA polymerase II CTD interacting factor 1), full-length (from UniProt Q9H4Z3 1-704) (enzyme)",binding,[1],no binding
same,binding,[2],no binding (tested: 4 mg/ml)
same,binding,[3],no binding (tested: 4 mg/ml)
